Values quoted from earlier work, collected in US20250235429A1, “TREATMENT OF DISEASES VIA ADMINISTRATION OF BUNTANETAP AND AN ANTIDIABETIC AGENT” (ANNOVIS BIO, INC., priority 2024, published 2025).
For some of these results: For at least one compound, name, drawing or mass did not settle the structure. Some of these results come from one statement about several compounds together.

Tests used:
[1] = system: subjects with mild Alzheimer's disease; conditions: cited from earlier work
[2] = in vivo; cited from earlier work

## CCCCCCCCCCCCCCCC(=O)N[C@@H](CCC(=O)NCCCC[C@H](NC(=O)[C@H](C)NC(=O)[C@H](C)NC(=O)[C@H](CCC(N)=O)NC(=O)CNC(=O)[C@H](CCC(=O)O)NC(=O)[C@H](CC(C)C)NC(=O)[C@H](Cc1ccc(O)cc1)NC(=O)[C@H](CO)NC(=O)[C@H](CO)NC(=O)[C@@H](NC(=O)[C@H](CC(=O)O)NC(=O)[C@H](CO)NC(=O)[C@@H](NC(=O)[C@H](Cc1ccccc1)NC(=O)[C@@H](NC(=O)CNC(=O)[C@H](CCC(=O)O)NC(=O)[C@H](C)NC(=O)[C@@H](N)Cc1cnc[nH]1)[C@@H](C)O)[C@@H](C)O)C(C)C)C(=O)N[C@@H](CCC(=O)O)C(=O)N[C@@H](Cc1ccccc1)C(=O)N[C@H](C(=O)N[C@@H](C)C(=O)N[C@@H](Cc1c[nH]c2ccccc12)C(=O)N[C@@H](CC(C)C)C(=O)N[C@H](C(=O)N[C@@H](CCCNC(=N)N)C(=O)NCC(=O)N[C@@H](CCCNC(=N)N)C(=O)NCC(=O)O)C(C)C)[C@@H](C)CC)C(=O)O [liraglutide]
[1]; 52 weeks, daily s.c. up to 1.8 mg, vs placebo, p<0.01
  cognitive decline (composite score of 18 tests): statistically significant slowing
[1]; in a year
  slower decline in cognitive function compared to placebo: 18%
[1]; in vivo
  reduction of shrinking in parts of the brain that control memory, learning, language, and decision-making compared to placebo: ~50%

## Insulin detemir
[2]
  duration: up to 24 hours
